Assay results published in patent US9107876B2, “Surface anesthetic agent” (YAMAGUCHI UNIVERSITY, priority 2009, dated 2015).
Some of these results come from one statement about several compounds together.

Test system: buccal mucosal membrane
Experiment: Needle stab after applying the surface anesthetic agent to the buccal mucosal membrane: time for the painless effect to be exerted
Type: in vivo
Details: 200 mg applied with a cotton swab to the buccal mucosal membrane, then a needle stabbed

CCCCNc1ccc(C(=O)OCCN(C)C)cc1 [tetracaine, 4-(butylamino)benzoate 2-(dimethylamino)ethyl]
time for the painless effect to be exerted after the application: ≥ 3 min
